Amino acid sequences for entries named in this document (tags omitted). A change or cut given only in a name is not applied to a line headed by its entry.
UniProt Q940D0: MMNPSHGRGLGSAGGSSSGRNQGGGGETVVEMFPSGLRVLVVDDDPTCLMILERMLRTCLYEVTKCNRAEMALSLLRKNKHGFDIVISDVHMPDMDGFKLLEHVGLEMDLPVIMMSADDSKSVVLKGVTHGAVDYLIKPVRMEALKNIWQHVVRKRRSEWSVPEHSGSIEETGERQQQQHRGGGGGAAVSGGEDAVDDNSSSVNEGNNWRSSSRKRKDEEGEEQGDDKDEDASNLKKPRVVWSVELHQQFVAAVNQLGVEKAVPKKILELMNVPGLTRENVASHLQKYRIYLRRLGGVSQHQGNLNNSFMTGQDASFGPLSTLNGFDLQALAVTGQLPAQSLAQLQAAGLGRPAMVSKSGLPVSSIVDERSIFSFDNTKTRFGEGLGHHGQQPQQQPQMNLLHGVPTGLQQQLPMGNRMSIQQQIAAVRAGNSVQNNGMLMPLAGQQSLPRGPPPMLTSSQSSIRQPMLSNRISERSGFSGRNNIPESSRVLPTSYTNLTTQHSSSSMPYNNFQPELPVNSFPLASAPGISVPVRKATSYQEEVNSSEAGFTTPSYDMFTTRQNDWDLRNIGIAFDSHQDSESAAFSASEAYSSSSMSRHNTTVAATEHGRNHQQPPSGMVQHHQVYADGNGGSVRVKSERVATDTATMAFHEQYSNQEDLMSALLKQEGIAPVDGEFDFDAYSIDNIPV

In patent publication US20160289698A1 (TRUSTEES OF DARTMOUTH COLLEGE, published 2016):

Biological target: ARR1 (153-669) (Arabidopsis) (UniProt Q940D0)
Assay: BiFC with ARR fragments

binding: binds
B1: KISS ME DEADLY 1 (KMD1) (other, Arabidopsis, UniProt Q9M8L2 1-354, looked up)
chain: MELIPNLPDDVARECLLRSSYQQFPVIASVCRAWNREVSLSQFLHQRKASRHSQELLILSQARVDPAGSGKIIATPEYRISVLESGSGLWTELPPIPGQTKGLPLFCRLVSVGSDLIVLGGLDPITWQAHDSVFVFSFLTSKWRVGATMPGVRRSFFGCASDSDRTVLVAGGHNEEKCALTSAMVYDVSEDKWTFLPDMARERDECKAVFHAGRFHVIGGYATEEQGQFSKTAESFDVSTWEWGPLTEDFLDDTGDTVSPPTCVAGGDLYACWGGDVMMFLNDKWQKVGQIPADVYNVTYVAVRPGMLIVIGNGKALAGYGEATVGYICDLSSSRWVKLETHGGHVQAGCFLEV
notes: Full-length protein; also called At1g80440

These are yes or no findings as the source states them, for the method shown. Binding can be weak; no strength is given.
